Test results: publication PMC2923778 (Journal of Molecular Biology, 2010)
Results are given in words; binding and its absence hold for the method and conditions named.

Molecular target: mSPSB1ΔSB (murine)
Assay: ITC; 100 μM peptide titrated into 10 μM mSPSB protein; 22 °C; 20 mM Tris, 150 mM sodium chloride, 2.5 mM calcium chloride, pH 8.0; single binding site model; both purified

binding | Binder
no binding (tested: Kd > 50 μM) | AAANELANNLPGGA (human prostate apoptosis response protein-4 (hPar-4), residues 64-77, N70A; source: synthetic peptide (GenScript Corporation)) [[N70A]hPar-4(64–77)]
no binding (tested: Kd > 50 μM) | AAANELNANLPGGA (human prostate apoptosis response protein-4 (hPar-4), residues 64-77, N71A; source: synthetic peptide (GenScript Corporation)) [[N71A]hPar-4(64–77)]
